Results published in US20170189504A1, “NOVEL PEPTIDES AND COMBINATION OF PEPTIDES FOR USE IN IMMUNOTHERAPY AGAINST VARIOUS CANCERS” (immatics biotechnologies GmbH, priority 2015, published 2017).

Columns and labels:
HLA-A*24 = assay: Identification and relative LC-MS quantitation of HLA-A*24-presented tumor-associated peptides on tissue samples (presentation profiles, Tables 14A, 14B, 16, FIG. 1); set-up: species or system human; key to Presentation score GC / Presentation score NSCLC / Presentation score PCA / Presentation score GB / Presentation score HCC / Presentation score RCC: specifically presented on tumors (++++); very highly over-presented on tumors compared to a panel of normal tissues (+++); highly over-presented on tumors compared to a panel of normal tissues (++); over-presented on tumors compared to a panel of normal tissues (+); conditions: for Presentation score NSCLC: non-small cell lung cancer (N = 91) vs panel of normal tissues (N = 70); for Peptide Presentation on cancer entities: Table 14A, HLA-A*24-binding tumor-associated peptides, cancer entities on which the peptide was found presented
source genes (mRNA) [1] = assay: Gene and exon expression of source genes, TCGA tumor samples compared with normal tissue samples (Lonsdale, 2013) (Table 17); set-up: species or system human; conditions: tumor expression more than 2-fold above highest 75% percentile of high and medium risk normal tissues; for Target coverage: over-expression category of source gene, ESCA: Esophageal cancer (N = 185); for Target coverage: over-expression category of source gene, OV: Ovarian serous cystadenocarcinoma (N = 309); for Target coverage: over-expression category of source gene, STAD: Stomach adenocarcinoma (N = 415)
source genes (mRNA) [2] = assay: Expression profiling of source genes by in-house RNASeq of tumor and normal tissues (Table 18, FIG. 2); set-up: species or system human; key: very highly over-expressed in tumors compared to a panel of normal tissues (+++); highly over-expressed in tumors compared to a panel of normal tissues (++); over-expressed in tumors compared to a panel of normal tissues (+); conditions: source gene of peptide

Q: “275: peptide found in ROR1 (gene looked up) (EYINQGDLHEF; listed as Homo sapiens) [compound 275]” was tested. Which “Presentation score NSCLC” value (HLA-A*24; HLA-A*24 peptides) did it give?
A: ++++

Q: What about the “Presentation score PCA” value (HLA-A*24; HLA-A*24 peptides, prostate cancer (N = 40) vs panel of normal tissues (N = 70)) of the same substance?
A: ++++

Q: And the “Peptide Presentation on cancer entities” value (HLA-A*24)?
A: NSCLC, PCA

Q: What about the “Target coverage: over-expression category of source gene, ESCA” value (source genes (mRNA) [1]) of the same substance?
A: C (>=5% of tumors above the cutoff, but <20%)

Q: What about the “Target coverage: over-expression category of source gene, OV” value (source genes (mRNA) [1]) of the same substance?
A: C (>=5% of tumors above the cutoff, but <20%)

Q: And the “Target coverage: over-expression category of source gene, STAD” value (source genes (mRNA) [1])?
A: C (>=5% of tumors above the cutoff, but <20%)

Q: What about the “Expression score CLL” value (source genes (mRNA) [2]; chronic lymphocytic leukemia (N = 10) vs panel of normal tissues) of the same substance?
A: +

Q: Which “Presentation score GC” value (HLA-A*24; HLA-A*24 peptides, gastric cancer (N = 44) vs panel of normal tissues (N = 70)) does the source give for “268: peptide found in TYMS (gene looked up) (QYLGQIQHI; listed as Homo sapiens) [compound 268]” here?
A: ++++

Q: What about the “Presentation score GB” value (HLA-A*24; HLA-A*24 peptides, glioblastoma (N = 18) vs panel of normal tissues (N = 70)) of the same substance?
A: ++++

Q: What about the “Presentation score HCC” value (HLA-A*24; HLA-A*24 peptides, hepatocellular carcinoma (N = 15) vs panel of normal tissues (N = 70)) of the same substance?
A: ++++

Q: And the “Presentation score NSCLC” value (HLA-A*24; HLA-A*24 peptides)?
A: ++++

Q: And the “Peptide Presentation on cancer entities” value (HLA-A*24)?
A: GB, GC, NSCLC, HCC

Q: What about the “Target coverage: over-expression category of source gene, LAML” value (source genes (mRNA) [1]; Acute Myeloid Leukemia (N = 173)) of the same substance?
A: A (>=50% of tumors above the cutoff)

Q: What about the “Target coverage: over-expression category of source gene, BLCA” value (source genes (mRNA) [1]; Bladder urothelial carcinoma (N = 408)) of the same substance?
A: A (>=50% of tumors above the cutoff)

Q: And the “Target coverage: over-expression category of source gene, BRCA” value (source genes (mRNA) [1]; Breast cancer (N = 1104))?
A: B (>= 20% of tumors above the cutoff, but <50%)

Q: What about the “Target coverage: over-expression category of source gene, CHOL” value (source genes (mRNA) [1]; Cholangiocarcinoma (N = 36)) of the same substance?
A: A (>=50% of tumors above the cutoff)

Q: And the “Target coverage: over-expression category of source gene, KIRC” value (source genes (mRNA) [1]; Clear cell kidney carcinoma (N = 534))?
A: A (>=50% of tumors above the cutoff)

Q: And the “Target coverage: over-expression category of source gene, READ” value (source genes (mRNA) [1]; Colon and rectal adenocarcinoma (N = 167))?
A: B (>= 20% of tumors above the cutoff, but <50%)

Q: And the “Target coverage: over-expression category of source gene, COAD” value (source genes (mRNA) [1]; Colon and rectal adenocarcinoma (N = 462))?
A: A (>=50% of tumors above the cutoff)

Q: And the “Target coverage: over-expression category of source gene, ESCA” value (source genes (mRNA) [1])?
A: A (>=50% of tumors above the cutoff)

Q: What about the “Target coverage: over-expression category of source gene, GBM” value (source genes (mRNA) [1]; Glioblastoma multiforme (N = 169)) of the same substance?
A: A (>=50% of tumors above the cutoff)

Q: And the “Target coverage: over-expression category of source gene, LIHC” value (source genes (mRNA) [1]; Liver hepatocellular carcinoma (N = 374))?
A: B (>= 20% of tumors above the cutoff, but <50%)

Q: What about the “Target coverage: over-expression category of source gene, LGG” value (source genes (mRNA) [1]; Lower grade glioma (N = 534)) of the same substance?
A: C (>=5% of tumors above the cutoff, but <20%)

Q: What about the “Target coverage: over-expression category of source gene, LUAD” value (source genes (mRNA) [1]; Lung adenocarcinoma (N = 517)) of the same substance?
A: B (>= 20% of tumors above the cutoff, but <50%)

Q: What about the “Target coverage: over-expression category of source gene, LUSC” value (source genes (mRNA) [1]; Lung squamous cell carcinoma (N = 503)) of the same substance?
A: A (>=50% of tumors above the cutoff)

Q: And the “Target coverage: over-expression category of source gene, DLBC” value (source genes (mRNA) [1]; Lymphoid neoplasm diffuse large B-cell lymphoma (N = 48))?
A: A (>=50% of tumors above the cutoff)

Q: And the “Target coverage: over-expression category of source gene, OV” value (source genes (mRNA) [1])?
A: A (>=50% of tumors above the cutoff)

Q: What about the “Target coverage: over-expression category of source gene, PAAD” value (source genes (mRNA) [1]; Pancreatic ductal adenocarcinoma (N = 179)) of the same substance?
A: C (>=5% of tumors above the cutoff, but <20%)

Q: What about the “Target coverage: over-expression category of source gene, KIRP” value (source genes (mRNA) [1]; Papillary kidney carcinoma (N = 291)) of the same substance?
A: B (>= 20% of tumors above the cutoff, but <50%)

Q: And the “Target coverage: over-expression category of source gene, SKCM” value (source genes (mRNA) [1]; Skin cutaneous melanoma (N = 473))?
A: A (>=50% of tumors above the cutoff)

Q: What about the “Target coverage: over-expression category of source gene, STAD” value (source genes (mRNA) [1]) of the same substance?
A: A (>=50% of tumors above the cutoff)

Q: And the “Target coverage: over-expression category of source gene, UCEC” value (source genes (mRNA) [1]; Uterine corpus endometrial carcinoma (N = 546))?
A: A (>=50% of tumors above the cutoff)

Q: And the “Expression score AML” value (source genes (mRNA) [2]; acute myeloid leukemia (N = 11) vs panel of normal tissues)?
A: +

Q: And the “Expression score OSCAR” value (source genes (mRNA) [2]; esophageal cancer incl. gastric-esophageal junction (N = 11) vs panel of normal tissues)?
A: +

Q: And the “Expression score GB” value (source genes (mRNA) [2]; glioblastoma (N = 24) vs panel of normal tissues)?
A: +

Q: What about the “Expression score NHL” value (source genes (mRNA) [2]; non-Hodgkin lymphoma (N = 10) vs panel of normal tissues) of the same substance?
A: ++

Q: And the “Expression score OC” value (source genes (mRNA) [2]; ovarian cancer (N = 12) vs panel of normal tissues)?
A: ++

Q: And the “Expression score SCLC” value (source genes (mRNA) [2]; small cell lung cancer (N = 10) vs panel of normal tissues)?
A: ++

Q: And the “Expression score UBC” value (source genes (mRNA) [2]; urinary bladder cancer (N = 10) vs panel of normal tissues)?
A: +

For part of these data: Expression grades refer to the transcript from which the peptide derives; gene names, where given, were looked up from the sequence.
